From publication PMC3457981, “The Role, Interaction and Regulation of the Velvet Regulator VelB in Aspergillus nidulans”

Columns and labels:
[1] = target: T1, GST-AbaA (Aspergillus nidulans) (UniProt P20945); experiment: EMSA; conditions: direct probe; 6% glycerol, 12 mM HEPES-KOH pH 7.6, 4 mM Tris-HCl pH 8.0, 1 mM EDTA, 0.5 mM DTT, 0-12 ug poly(dI-dC), ~10 ng probe in 24 ul; RT, 20 min; 6% PAGE, TBE; recombinant protein; residues 1-588; protein details: N-terminal GST (pGEX-5X-1); label: 32P as probe, unlabeled as competitor
T1 sequence (looked up): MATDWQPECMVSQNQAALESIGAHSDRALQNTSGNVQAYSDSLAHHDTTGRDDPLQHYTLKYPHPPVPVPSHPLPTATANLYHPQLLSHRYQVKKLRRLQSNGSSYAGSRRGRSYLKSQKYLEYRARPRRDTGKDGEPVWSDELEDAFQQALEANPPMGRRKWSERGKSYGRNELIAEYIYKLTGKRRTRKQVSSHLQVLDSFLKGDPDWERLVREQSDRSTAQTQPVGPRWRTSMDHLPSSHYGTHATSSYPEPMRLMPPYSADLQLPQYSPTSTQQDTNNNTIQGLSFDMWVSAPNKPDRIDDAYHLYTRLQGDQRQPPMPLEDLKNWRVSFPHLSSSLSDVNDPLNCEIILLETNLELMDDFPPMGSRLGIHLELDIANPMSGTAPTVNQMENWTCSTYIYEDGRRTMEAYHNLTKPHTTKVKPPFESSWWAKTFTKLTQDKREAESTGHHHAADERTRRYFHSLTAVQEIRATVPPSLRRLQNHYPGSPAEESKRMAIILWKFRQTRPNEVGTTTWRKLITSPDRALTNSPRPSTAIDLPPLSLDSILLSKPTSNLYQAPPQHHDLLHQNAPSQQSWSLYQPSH

[2] = target: T1, GST-AbaA (Aspergillus nidulans); experiment: competition with a labelled probe; conditions: unlabeled, 5-25 fold excess vs labeled WT probe, 6% glycerol, 12 mM HEPES-KOH pH 7.6, 4 mM Tris-HCl pH 8.0, 1 mM EDTA, 0.5 mM DTT, 0-12 ug poly(dI-dC), ~10 ng probe in 24 ul, RT, 20 min, 6% PAGE, TBE, recombinant protein, residues 1-588, protein details: N-terminal GST (pGEX-5X-1)
GST = experiment: EMSA; conditions: tag-only control; 6% glycerol, 12 mM HEPES-KOH pH 7.6, 4 mM Tris-HCl pH 8.0, 1 mM EDTA, 0.5 mM DTT, 0-12 ug poly(dI-dC), ~10 ng probe in 24 ul; RT, 20 min; 6% PAGE, TBE; recombinant protein; protein details: GST only; label: 32P (5' end, T4 PNK)
[3] = label: 32P as probe, unlabeled as competitor

**Q.** Does “AGCTCCAGCTCCAAACCGCACGGTCAAACCGTTCTCGGCG (double strand) [velB EMSA probe M2]” bind [1]?
**A.** no binding

**Q.** Does “AGCTCCAGCTCCAAACCGCACGGTCAAACCGTTCTCGGCG (double strand) [velB EMSA probe M2]” bind [2, 3]?
**A.** no binding

**Q.** Does “AGCTCCAGCTCCATTCCGCACGGTCATTCCGTTCTCGGCG (double strand) [velB EMSA probe 2]” bind ([2]; label: 32P (5' end, T4 PNK))?
**A.** binds

**Q.** Does “CAGCTCCAAACCGCACGGTCATTCC (double strand) [velB EMSA probe M1]” bind [1]?
**A.** no binding

**Q.** Does “CAGCTCCAAACCGCACGGTCATTCC (double strand) [velB EMSA probe M1]” bind [2, 3]?
**A.** no binding

**Q.** What does the source list for “CAGCTCCATTCCGCACGGTCATTCC (double strand) [velB EMSA probe 1]”?
**A.** binding result (GST): no binding; binding result ([2]; label: 32P (5' end, T4 PNK)): binds

**Q.** What does the source list for “GTGGTTCCTTACCTCAAACCCGACCTTTTTTGCC (double strand) [vosA EMSA probe M3]”?
**A.** binding result [1]: no binding; binding result [2, 3]: no binding

**Q.** Does “GTGGTTCCTTACCTCATTCCCGACCTTTTTTGCC (double strand) [vosA EMSA probe 3]” bind ([2]; label: 32P (5' end, T4 PNK))?
**A.** binds

Negatives hold for the conditions tested. For some of these results: At least one verdict was read from the data and is not stated in words by the source. For some of these results: Where a protein sequence is shown, tags need not be part of it. For some of these results: The exact form of at least one protein or probe is not confirmed.
